Measured values reported in PubChem BioAssay AID485349 (National Center for Advancing Translational Sciences (NCATS), 2010).
Screen size: about 320,000 compounds; about 620 (0.19%) were called active. This list was built around the results that the source calls inconclusive (neither active nor inactive); the mix of calls is not that of the screen. Calls come from the whole dose curve; as a rule, active = well fitted activation curve with a large enough effect; inconclusive = small, poorly fitted or top-dose-only effect; inactive = no such curve, though single readings can be large or run the other way. Where the call is inconclusive, the potency comes from a doubtful curve fit.

Test: qHTS Assay for Identifying a Potential Treatment of Ataxia-Telangiectasia; note: nearly all actives have a fitted effect of over 45% in size; for activation: % of control where 0% means no effect
Conditions: […] A-T fibroblasts, KAP-1 phosphorylation AlphaLISA, neocarzinostatin DNA damage 30 min before lysis; series mostly up to 57.5 µM; activation: at the top concentration
Procedure, shortened: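 hTERT-immortalized A-T patient fibroblasts ([…]), 500 cells/well in OPTI-MEM, 1% FBS, got compounds for 60 min, then NCS for 30 min at 37C. Lysates were then assayed for phospho-KAP-1 by AlphaLISA (anti-pKAP1 donor, anti-KAP1 acceptor beads), 6 hr at 25C.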
Potency is the fitted concentration of half-maximal effect.

Row | Compound | Potency | activation
1 | COc1cc2c(cc1OC)CN(C(=O)/C=C/c1cc(OC)c(OC)c(OC)c1)CC2 | active: 3.16 µM | 
2 | Cc1ccc(C)c(N2CCN(S(=O)(=O)c3ccc4c(c3)CCC(=O)N4)CC2)c1 |  | inactive: 0.206%
3 | O=S(=O)(C/C(=C/CO)S(=O)(=O)c1ccccc1)c1ccccc1 | inconclusive: 3.16 µM [activator, partial curve] | 
4 | CCC(C)(c1ccc(C(=O)OC)s1)c1ccc(C(=O)OC)s1 | inconclusive: 12.6 µM [activator, partial curve] | 
5 | O=C(N/N=C/c1cccc(C(F)(F)F)c1)c1cc2c(s1)-c1ccccc1CC2 |  | inactive: -3.24%
6 | CC1C=CCC2C(=O)N(c3cccc(C(=O)Nc4ccc(Br)cc4)c3)C(=O)C12 (stereo unspecified) | inconclusive: 0.631 µM [activator, full curve, poor fit] | 
7 | Cc1c(O)ccc2cc(S(=O)(=O)c3ccccc3)c(=O)oc12 | active: 12.6 µM | 
8 | CCOC(=O)c1c(NC(=O)COC(=O)c2ccc(NC(=O)CC#N)cc2)sc(C(=O)NC)c1C |  | inactive: 0.734%
9 | S=c1[nH]ncn2c1cc1oc3ccccc3c12 |  | inactive: -2.89%
10 | C/C(CCC1CC(C)OC1=O)=N\NC(N)=S (stereo unspecified) | inconclusive: 0.631 µM [activator, full curve, poor fit] | 
11 | CN1C(=O)c2ccc(C(=O)NCc3ccco3)cc2C1=O | inconclusive: 2.82 µM [activator, partial curve] | 
12 | CCOC(=O)C1=C(C)N(CCCC(=O)O)C(=O)NC1c1ccccc1OS(=O)(=O)c1ccc(C)cc1 (stereo unspecified) |  | inactive: -13.7%
13 | Cc1cc2nc3ccc(=[N+](C)C)cc-3sc2cc1N | active: 15.8 µM | 
14 | N#C/C(=C\c1ccc(N2CCOCC2)o1)c1ccccc1 | inconclusive: 2 µM [activator, partial curve] | 
15 | O=C(c1ccc(NC(=S)Nc2ccc(Cl)c(Cl)c2)cc1)N1CCCC1 |  | inactive: -0.294%
16 | Cc1ccc(NC(=O)Nc2ccccc2)cc1[N+](=O)[O-] |  | inactive: -9.59%
17 | CCn1c2ccccc2c2cc(C3C(C#N)=C(N)Oc4n[nH]c(COC)c43)ccc21 (stereo unspecified) | inconclusive: 39.8 µM [activator, single point] | 
18 | O=C1c2ccccc2NC(c2cccnc2)N1c1ccccc1F (stereo unspecified) |  | inactive: 2.18%
19 | OCC(O)CN1CCCC1 (stereo unspecified) | inconclusive: 3.16 µM [activator, partial curve] | 
20 | Nc1nn(-c2ccccc2)c(N)c1N=Nc1ccccc1F |  | inactive: 2.33%
21 | Cn1c(C(=O)O)cc2c(=O)n3ccccc3nc21 | inconclusive: 39.8 µM [activator, partial curve, poor fit] | 
22 | COc1ccc(S(=O)(=O)Nc2cccc3c2O[C@H](CN(C)S(=O)(=O)c2cccs2)[C@@H](C)CN([C@H](C)CO)C3=O)cc1 | inconclusive: 11.2 µM [activator, partial curve] | 
23 | Cc1[nH]c(C(=O)N/N=C/c2ccc(C(=O)O)cc2)c(C)c1C(=O)N/N=C/c1ccc(C(=O)O)cc1 |  | inactive: 7.81%
24 | CCC(=O)Nc1ccc2c(c1)ncn2-c1ccccc1 |  | inactive: -3.71%

Row | Compound | Potency | activation
25 | O=C(Nc1ccccc1N1CCCC1)c1cc2ccccc2o1 | inconclusive: 28.2 µM [activator, partial curve] | 
26 | O=C(c1ccco1)N1CCN(Cc2ccccc2F)CC1 | inconclusive: 3.16 µM [activator, single point] | 
27 | CCOc1ccc(/C=c2\sc3nc(-c4ccco4)nn3c2=O)cc1OCC |  | inactive: -3.77%
28 | Cn1cnc([N+](=O)[O-])c1SCCO | inconclusive: 2.82 µM [activator, partial curve, poor fit] | 
29 | CC/C(=N\NC(=O)c1ccccc1Cl)c1ccc(Br)s1 | inconclusive: 39.8 µM [activator, partial curve] | 
30 | O=C(O)[C@@H]1CCCC[C@@H]1C(=O)N1CCc2ccccc2C1CN1C(=O)c2ccccc2C1=O (stereo partly specified) | inconclusive: 25.1 µM [activator, partial curve] | 
31 | CSc1nc2ccccc2c(=O)n1C1CCCCC1 | inconclusive: 31.6 µM [activator, partial curve] | 
32 | CC(=O)c1sc2nc(C)c3c(c2c1N)CCCC3 | active: 35.5 µM | 
33 | CCNC(=S)N(CCc1c(C)[nH]c2ccc(F)cc12)Cc1cccnc1 | inconclusive: 0.708 µM [activator, full curve, poor fit] | 
34 | Clc1ccc2c(c1)c1cc(Cl)ccc1n2CN1CCOCC1 | inconclusive: 39.8 µM [activator, single point] | 
35 | Cc1nc(N2N=C(c3ccc(Cl)cc3)CC2c2ccco2)sc1C(=O)N(C)C (stereo unspecified) | active: 31.6 µM | 
36 | Cc1ccccc1N1C(=O)c2ccccc2C1O (stereo unspecified) | active: 39.8 µM | 
37 | Nc1ccc(-c2nc(-c3ccccc3)nc3ccccc23)cc1 | inconclusive: 17.8 µM [activator, partial curve] | 
38 | CC1=NOC2(C1)N(C)c1ccccc1C2(C)C (stereo unspecified) | inconclusive: 0.316 µM [activator, full curve] | 
39 | CCCCc1cc(=O)oc2cc(OCC(=O)NCC3CCC(C(=O)O)CC3)ccc12 (stereo unspecified) |  | inactive: -4.66%
40 | CC(C)Cn1nc(NC(=O)C2CCCO2)c2cc3ccccc3nc21 (stereo unspecified) | inconclusive: 39.8 µM [activator, single point] | 
41 | O=C(NCCCn1ccnc1)c1cc2nc(-c3ccc(Br)cc3)cc(C(F)(F)F)n2n1 |  | inactive: -1.65%
42 | CC(=O)c1c(C)[nH]c(C(=O)OCc2ccccc2F)c1C | inconclusive: 39.8 µM [activator, partial curve, poor fit] | 
43 | CCN(CC)CCCNC(=O)C(C)n1c2ccccc2c2nc(=O)cc(C)n21 (stereo unspecified) | inconclusive: 1.12 µM [activator, full curve, poor fit] | 
44 | C=C(C(=O)c1ccccc1)C(C)C(=C)C(=O)c1ccccc1 | active: 28.2 µM | 
45 | CCC(=O)Nc1nc2nc(-c3ccccc3)cc(-c3ccccc3)n2n1 | inconclusive: 39.8 µM [activator, single point] | 
46 | O=C(COC(=O)c1ccccc1NCCO)NCc1cccs1 | inconclusive: 28.2 µM [activator, partial curve] | 
47 | CCOC(=O)N1CCN(c2nc(-c3ccccc3)c3cc(C)ccc3n2)CC1 | inconclusive: 20 µM [activator, partial curve] | 
48 | COc1ccc(/C=N/NC(=O)c2ccn[nH]2)cc1Cn1nc(C)c([N+](=O)[O-])c1C | inconclusive: 22.4 µM [activator, partial curve, poor fit] | 

Row | Compound | Potency | activation
49 | COc1ccc(-c2oc3ccccc3c2C(=O)OCc2ccccc2)cc1 | inconclusive: 39.8 µM [activator, single point] | 
50 | CSc1nnc(-c2cc3c(s2)-c2ccccc2CC3)o1 | inconclusive: 28.2 µM [activator, partial curve] | 
51 | Cc1cc(-c2nnc(CCC(=O)N(C)C(C)c3cccs3)o2)no1 (stereo unspecified) | inconclusive: 39.8 µM [activator, single point] | 
52 | CC(C)CCSc1nc2c(c(=O)[nH]c(=O)n2C)n1CCCc1ccccc1 | inconclusive: 15.8 µM [activator, partial curve] | 
53 | CC1CC(C)CN(S(=O)(=O)c2ccc(C(=O)NCCCn3ccnc3)cc2)C1 (stereo unspecified) | inconclusive: 3.16 µM [activator, partial curve] | 
54 | COc1ccc(/C(C)=N/NC(=O)CNC(=O)C2COc3ccccc3O2)c(OC)c1 (stereo unspecified) | inconclusive: 3.16 µM [activator, partial curve] | 
55 | CC1CCCC(NC(=O)c2cccs2)C1C (stereo unspecified) | inconclusive: 14.1 µM [activator, partial curve] | 
56 | Cc1cccc2cc3c(NC(=O)CC(C)C)nn(C)c3nc12 | inconclusive: 0.631 µM [activator, full curve, poor fit] | 
57 | COC(=O)N1C(=O)[C@@](c2ccccc2)(C2CCCC2)N1C(=O)OC | active: 25.1 µM | 
58 | CCC(=O)N(C)CCc1cc2c(c(OC)c1/C=N/Nc1ccc(C(=O)O)cc1)OCO2 | active: 39.8 µM | 
59 | C[C@@]12CCC=C[C@H]1[C@H](c1ccc(/C=C/c3ccccc3)cc1F)N(Cc1ccccc1)C2=O | active: 39.8 µM | 
60 | CCOC(=O)N1CCC(NC(=O)C2CCN(S(=O)(=O)c3cccc4cccnc34)CC2)CC1 | inconclusive: 3.16 µM [activator, partial curve] | 
61 | COc1ccc(-c2ccc(=O)n(CC(=O)NCc3ccco3)n2)cc1 |  | inactive: -10.2%
62 | COc1cc([C@@H]2c3cc4c(cc3[C@@H](NC3CCN(Cc5ccccc5)CC3)[C@H]3COC(=O)[C@H]23)OCO4)cc(OC)c1O | inconclusive: 39.8 µM [activator, single point] | 
63 | CCc1ccc(NC(=O)CN(CC(=O)Nc2ccc(CC)cc2)CC(C)O)cc1 (stereo unspecified) | inconclusive: 3.16 µM [activator, partial curve] | 
64 | O=C1CCN(Cc2ccccc2)S(=O)(=O)c2ccc(C(F)(F)F)cc21 | inconclusive: 3.98 µM [activator, single point] | 
65 | Cc1ccc(CN2CC(C(=O)Nc3ccc4c(C)cc(=O)oc4c3)CC2=O)cc1 (stereo unspecified) | inconclusive: 35.5 µM [activator, single point] | 
66 | CCOc1cc(CNCc2ccccc2)ccc1OCc1ccc(Cl)cc1 | inconclusive: 20 µM [activator, single point] | 
67 | CN(Cc1ccccc1)C(NC(=O)c1ccccc1)C(Cl)(Cl)Cl (stereo unspecified) | inconclusive: 22.4 µM [activator, partial curve, poor fit] | 
68 | O=C(COC(=O)/C=C/c1ccco1)NCc1ccccc1Cl | inconclusive: 0.708 µM [activator, full curve, poor fit] | 
69 | CN(C)CCNC(=O)C(c1ccccc1)c1ccccc1 |  | inactive: -12.2%
70 | Nc1ccc2nn(-c3ccc(Cl)cc3)nc2c1 | active: 17.8 µM | 
71 | CC(C)CCNC(=O)c1cc(-c2cccs2)nc2ccccc12 | inconclusive: 0.708 µM [activator, full curve, poor fit] | 
